# Results published in PubChem BioAssay AID2517 (National Center for Advancing Translational Sciences (NCATS), 2010).
# By UniProt entry, the sequences of proteins in these tests, tags left out.
# UniProt P27695, whole entry: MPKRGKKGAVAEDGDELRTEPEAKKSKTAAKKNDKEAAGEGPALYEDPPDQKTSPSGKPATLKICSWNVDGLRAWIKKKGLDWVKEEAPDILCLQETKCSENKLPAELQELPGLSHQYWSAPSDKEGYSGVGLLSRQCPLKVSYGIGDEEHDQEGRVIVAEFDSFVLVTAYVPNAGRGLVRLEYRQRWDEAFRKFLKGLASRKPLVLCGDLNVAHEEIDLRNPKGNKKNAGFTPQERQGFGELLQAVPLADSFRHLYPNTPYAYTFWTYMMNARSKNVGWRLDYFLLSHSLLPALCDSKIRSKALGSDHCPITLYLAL
# Screen size: about 350,000 compounds; about 1,200 (0.34%) were called active. The source calls these results inconclusive, neither active nor inactive. Calls come from the whole dose curve; as a rule, active = well fitted inhibition curve with a large enough effect; inconclusive = small, poorly fitted or top-dose-only effect; inactive = no such curve, though single readings can be large or run the other way.
# Target: DNA repair nuclease/redox regulator APEX1 (Homo sapiens) (UniProt P27695)
# Test: qHTS Assay for Inhibitors of the Human Apurinic/apyrimidinic Endonuclease 1 (APE1); note: nearly all actives have a fitted effect of over 55% in size
# Details: recombinant APE1, TAMRA/BHQ-2 abasic DNA cleavage fluorescence
# Potency is the fitted concentration of half-maximal effect.
row,SMILES,Potency
1,OCCN(CCO)CCO,inconclusive: 11.2 µM
2,O=C(O)C1(O)c2ccccc2-c2ccccc21,inconclusive: 12.6 µM
3,O=C(OCCCN1CCCC1)C(O)(c1ccccc1)C1CCCCC1 (stereo unspecified),inconclusive: 44.7 µM
4,CCCCCOc1ccc(NP(C)(=O)Oc2ccc(Cl)cc2Cl)cc1 (stereo unspecified),inconclusive: 3.55 µM
5,COc1ccc(NP(C)(=O)Oc2ccccc2OC)cc1 (stereo unspecified),inconclusive: 35.5 µM
6,CCN(CCCl)Cc1ccccc1C,inconclusive: 39.8 µM
